Where two headings read alike, the source gives them in different places.
Assays:
Amorphotheca resinae ZN1 = conditions: 25 °C, detoxification time 96 h, cited from earlier work
Enterobacter sp. FDS8 = test: Detoxification of furfural and HMF in lignocellulose hydrolysate by Enterobacter sp. FDS8 cells (HPLC); conditions: for concentration in lignocellulose hydrolysate after detoxification: 3 h, 3.4 g/L cells, 30 °C
[1] = tested on: Ureibacillus thermosphaericus; conditions: Table 4; 50 °C, detoxification time 24 h; cited from earlier work
[2] = Table 7, consecutive detoxification step 1
[3] = Table 4, detoxification temperature 30 °C, detoxification time 3 h

SMILES	degradation rate (Amorphotheca resinae ZN1; Table 6)	concentration in lignocellulose hydrolysate after detoxification (Enterobacter sp. FDS8; Table 2, 200 mL hydrolysate)	concentration in lignocellulose hydrolysate after detoxification (Enterobacter sp. FDS8; Table 3, 20 ml hydrolysate)	concentration in lignocellulose hydrolysate after detoxification (Enterobacter sp. FDS8; [2])	Specific degradation rate [1]	degradation rate [1]	degradation rate (Amorphotheca resinae ZN1; Table 4)	degradation rate (Enterobacter sp. FDS8; Control (without nitrogen resource))	degradation rate (Enterobacter sp. FDS8; NaNO3 5 g/L + (NH4)2SO4 5 g/L)	degradation rate (Enterobacter sp. FDS8; Potato extract 10 g/L)	Specific degradation rate (Enterobacter sp. FDS8; [3])	degradation rate (Enterobacter sp. FDS8; [3])	degradation rate (Enterobacter sp. FDS8; Yeast extract 10 g/L)	degradation rate (Enterobacter sp. FDS8; inoculum size of 4.6 g/L (FIG. 4))
CC(=O)O [Acetic acid, acetic acid]	20 mg/L/h	5.46 g/L	6.76 g/L	5.21 g/L	–	–	–	–	–	–	–	–	–	–
O=Cc1ccco1 [Furfural, 2-furaldehyde]	–	0 g/L	0 g/L	0 g/L	4 mg/g cell/h	15 mg/L/h	6 mg/L/h	313 ± 74 mg/L/h	160 ± 26 mg/L/h	360 ± 62 mg/L/h	130 mg/g cell/h	537 mg/L/h	370 ± 62 mg/L/h	537 mg/L/h
